The target of the test is FOXO4 forkhead (FH) domain (human). The test is described as follows: NMR titration; 1H,15N HSQC of 50 uM 15N-labelled FH domain, unlabelled CR3 added in trans (25 uM or 50 uM); 50 mM NaH2PO4/Na2HPO4 pH 6.5, 0.04% NaN3, 5 mM DTT; 25 C; read-out chemical shift perturbations and line broadening; both purified.

Results are given in words; binding and its absence hold for the method and conditions named. Binding can be weak; no strength is given.

B1: FOXO6 conserved region 3 (CR3, transactivation domain), amino acids 418 to 472 (domain or fragment, human, UniProt A8MYZ6 418-472, looked up)
chain: YAAAAAGPLGAAPDRFPADLDLDMFSGSLECDVESIILNDFMDSDEMDFNFDSAL
notes: human FOXO6, Uniprot A8MYZ6, amino acids 418 to 472, CR3; Unlabelled in the titrations; also called FOXO6^CR3; CR3 of FOXO6; source: E. coli BL21-DE3 Star, lysed in 6 M urea, purified (Ni-NTA, TEV cleavage, second Ni-NTA, SEC)
For the molecule B1, the binding entry is on record as “binds weakly”.

B2: FOXO3 conserved region 3 (CR3, transactivation domain), amino acids 593 to 646 (domain or fragment, UniProt O43524 593-646)
chain: YSTSANLPVMGHEKFPSDLDLDMFNGSLECDMESIIRSELMDADGLDFNFDSLI
As for B2, the binding result was “binds weakly”.
